Laboratory results reported in paper doi:10.1101/2021.03.23.436667.
No constants are given. Whether binding was seen depends on the method and setting. In cells and extracts the contact can be indirect. Some results given as binding are weak or reduced against the parent protein; the word gives no strength.

Protein sequences, listed by entry. Tags and fused reporters are not part of them. Residues count along the entry.
UniProt P07478, residues 24-247: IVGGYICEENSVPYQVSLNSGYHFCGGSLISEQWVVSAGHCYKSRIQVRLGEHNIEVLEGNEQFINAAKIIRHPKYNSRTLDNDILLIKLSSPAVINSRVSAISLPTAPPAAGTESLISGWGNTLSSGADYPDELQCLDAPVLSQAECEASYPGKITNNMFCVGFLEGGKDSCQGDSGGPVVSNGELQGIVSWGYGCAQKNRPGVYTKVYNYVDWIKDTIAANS
UniProt Q07954, residues 20-4544: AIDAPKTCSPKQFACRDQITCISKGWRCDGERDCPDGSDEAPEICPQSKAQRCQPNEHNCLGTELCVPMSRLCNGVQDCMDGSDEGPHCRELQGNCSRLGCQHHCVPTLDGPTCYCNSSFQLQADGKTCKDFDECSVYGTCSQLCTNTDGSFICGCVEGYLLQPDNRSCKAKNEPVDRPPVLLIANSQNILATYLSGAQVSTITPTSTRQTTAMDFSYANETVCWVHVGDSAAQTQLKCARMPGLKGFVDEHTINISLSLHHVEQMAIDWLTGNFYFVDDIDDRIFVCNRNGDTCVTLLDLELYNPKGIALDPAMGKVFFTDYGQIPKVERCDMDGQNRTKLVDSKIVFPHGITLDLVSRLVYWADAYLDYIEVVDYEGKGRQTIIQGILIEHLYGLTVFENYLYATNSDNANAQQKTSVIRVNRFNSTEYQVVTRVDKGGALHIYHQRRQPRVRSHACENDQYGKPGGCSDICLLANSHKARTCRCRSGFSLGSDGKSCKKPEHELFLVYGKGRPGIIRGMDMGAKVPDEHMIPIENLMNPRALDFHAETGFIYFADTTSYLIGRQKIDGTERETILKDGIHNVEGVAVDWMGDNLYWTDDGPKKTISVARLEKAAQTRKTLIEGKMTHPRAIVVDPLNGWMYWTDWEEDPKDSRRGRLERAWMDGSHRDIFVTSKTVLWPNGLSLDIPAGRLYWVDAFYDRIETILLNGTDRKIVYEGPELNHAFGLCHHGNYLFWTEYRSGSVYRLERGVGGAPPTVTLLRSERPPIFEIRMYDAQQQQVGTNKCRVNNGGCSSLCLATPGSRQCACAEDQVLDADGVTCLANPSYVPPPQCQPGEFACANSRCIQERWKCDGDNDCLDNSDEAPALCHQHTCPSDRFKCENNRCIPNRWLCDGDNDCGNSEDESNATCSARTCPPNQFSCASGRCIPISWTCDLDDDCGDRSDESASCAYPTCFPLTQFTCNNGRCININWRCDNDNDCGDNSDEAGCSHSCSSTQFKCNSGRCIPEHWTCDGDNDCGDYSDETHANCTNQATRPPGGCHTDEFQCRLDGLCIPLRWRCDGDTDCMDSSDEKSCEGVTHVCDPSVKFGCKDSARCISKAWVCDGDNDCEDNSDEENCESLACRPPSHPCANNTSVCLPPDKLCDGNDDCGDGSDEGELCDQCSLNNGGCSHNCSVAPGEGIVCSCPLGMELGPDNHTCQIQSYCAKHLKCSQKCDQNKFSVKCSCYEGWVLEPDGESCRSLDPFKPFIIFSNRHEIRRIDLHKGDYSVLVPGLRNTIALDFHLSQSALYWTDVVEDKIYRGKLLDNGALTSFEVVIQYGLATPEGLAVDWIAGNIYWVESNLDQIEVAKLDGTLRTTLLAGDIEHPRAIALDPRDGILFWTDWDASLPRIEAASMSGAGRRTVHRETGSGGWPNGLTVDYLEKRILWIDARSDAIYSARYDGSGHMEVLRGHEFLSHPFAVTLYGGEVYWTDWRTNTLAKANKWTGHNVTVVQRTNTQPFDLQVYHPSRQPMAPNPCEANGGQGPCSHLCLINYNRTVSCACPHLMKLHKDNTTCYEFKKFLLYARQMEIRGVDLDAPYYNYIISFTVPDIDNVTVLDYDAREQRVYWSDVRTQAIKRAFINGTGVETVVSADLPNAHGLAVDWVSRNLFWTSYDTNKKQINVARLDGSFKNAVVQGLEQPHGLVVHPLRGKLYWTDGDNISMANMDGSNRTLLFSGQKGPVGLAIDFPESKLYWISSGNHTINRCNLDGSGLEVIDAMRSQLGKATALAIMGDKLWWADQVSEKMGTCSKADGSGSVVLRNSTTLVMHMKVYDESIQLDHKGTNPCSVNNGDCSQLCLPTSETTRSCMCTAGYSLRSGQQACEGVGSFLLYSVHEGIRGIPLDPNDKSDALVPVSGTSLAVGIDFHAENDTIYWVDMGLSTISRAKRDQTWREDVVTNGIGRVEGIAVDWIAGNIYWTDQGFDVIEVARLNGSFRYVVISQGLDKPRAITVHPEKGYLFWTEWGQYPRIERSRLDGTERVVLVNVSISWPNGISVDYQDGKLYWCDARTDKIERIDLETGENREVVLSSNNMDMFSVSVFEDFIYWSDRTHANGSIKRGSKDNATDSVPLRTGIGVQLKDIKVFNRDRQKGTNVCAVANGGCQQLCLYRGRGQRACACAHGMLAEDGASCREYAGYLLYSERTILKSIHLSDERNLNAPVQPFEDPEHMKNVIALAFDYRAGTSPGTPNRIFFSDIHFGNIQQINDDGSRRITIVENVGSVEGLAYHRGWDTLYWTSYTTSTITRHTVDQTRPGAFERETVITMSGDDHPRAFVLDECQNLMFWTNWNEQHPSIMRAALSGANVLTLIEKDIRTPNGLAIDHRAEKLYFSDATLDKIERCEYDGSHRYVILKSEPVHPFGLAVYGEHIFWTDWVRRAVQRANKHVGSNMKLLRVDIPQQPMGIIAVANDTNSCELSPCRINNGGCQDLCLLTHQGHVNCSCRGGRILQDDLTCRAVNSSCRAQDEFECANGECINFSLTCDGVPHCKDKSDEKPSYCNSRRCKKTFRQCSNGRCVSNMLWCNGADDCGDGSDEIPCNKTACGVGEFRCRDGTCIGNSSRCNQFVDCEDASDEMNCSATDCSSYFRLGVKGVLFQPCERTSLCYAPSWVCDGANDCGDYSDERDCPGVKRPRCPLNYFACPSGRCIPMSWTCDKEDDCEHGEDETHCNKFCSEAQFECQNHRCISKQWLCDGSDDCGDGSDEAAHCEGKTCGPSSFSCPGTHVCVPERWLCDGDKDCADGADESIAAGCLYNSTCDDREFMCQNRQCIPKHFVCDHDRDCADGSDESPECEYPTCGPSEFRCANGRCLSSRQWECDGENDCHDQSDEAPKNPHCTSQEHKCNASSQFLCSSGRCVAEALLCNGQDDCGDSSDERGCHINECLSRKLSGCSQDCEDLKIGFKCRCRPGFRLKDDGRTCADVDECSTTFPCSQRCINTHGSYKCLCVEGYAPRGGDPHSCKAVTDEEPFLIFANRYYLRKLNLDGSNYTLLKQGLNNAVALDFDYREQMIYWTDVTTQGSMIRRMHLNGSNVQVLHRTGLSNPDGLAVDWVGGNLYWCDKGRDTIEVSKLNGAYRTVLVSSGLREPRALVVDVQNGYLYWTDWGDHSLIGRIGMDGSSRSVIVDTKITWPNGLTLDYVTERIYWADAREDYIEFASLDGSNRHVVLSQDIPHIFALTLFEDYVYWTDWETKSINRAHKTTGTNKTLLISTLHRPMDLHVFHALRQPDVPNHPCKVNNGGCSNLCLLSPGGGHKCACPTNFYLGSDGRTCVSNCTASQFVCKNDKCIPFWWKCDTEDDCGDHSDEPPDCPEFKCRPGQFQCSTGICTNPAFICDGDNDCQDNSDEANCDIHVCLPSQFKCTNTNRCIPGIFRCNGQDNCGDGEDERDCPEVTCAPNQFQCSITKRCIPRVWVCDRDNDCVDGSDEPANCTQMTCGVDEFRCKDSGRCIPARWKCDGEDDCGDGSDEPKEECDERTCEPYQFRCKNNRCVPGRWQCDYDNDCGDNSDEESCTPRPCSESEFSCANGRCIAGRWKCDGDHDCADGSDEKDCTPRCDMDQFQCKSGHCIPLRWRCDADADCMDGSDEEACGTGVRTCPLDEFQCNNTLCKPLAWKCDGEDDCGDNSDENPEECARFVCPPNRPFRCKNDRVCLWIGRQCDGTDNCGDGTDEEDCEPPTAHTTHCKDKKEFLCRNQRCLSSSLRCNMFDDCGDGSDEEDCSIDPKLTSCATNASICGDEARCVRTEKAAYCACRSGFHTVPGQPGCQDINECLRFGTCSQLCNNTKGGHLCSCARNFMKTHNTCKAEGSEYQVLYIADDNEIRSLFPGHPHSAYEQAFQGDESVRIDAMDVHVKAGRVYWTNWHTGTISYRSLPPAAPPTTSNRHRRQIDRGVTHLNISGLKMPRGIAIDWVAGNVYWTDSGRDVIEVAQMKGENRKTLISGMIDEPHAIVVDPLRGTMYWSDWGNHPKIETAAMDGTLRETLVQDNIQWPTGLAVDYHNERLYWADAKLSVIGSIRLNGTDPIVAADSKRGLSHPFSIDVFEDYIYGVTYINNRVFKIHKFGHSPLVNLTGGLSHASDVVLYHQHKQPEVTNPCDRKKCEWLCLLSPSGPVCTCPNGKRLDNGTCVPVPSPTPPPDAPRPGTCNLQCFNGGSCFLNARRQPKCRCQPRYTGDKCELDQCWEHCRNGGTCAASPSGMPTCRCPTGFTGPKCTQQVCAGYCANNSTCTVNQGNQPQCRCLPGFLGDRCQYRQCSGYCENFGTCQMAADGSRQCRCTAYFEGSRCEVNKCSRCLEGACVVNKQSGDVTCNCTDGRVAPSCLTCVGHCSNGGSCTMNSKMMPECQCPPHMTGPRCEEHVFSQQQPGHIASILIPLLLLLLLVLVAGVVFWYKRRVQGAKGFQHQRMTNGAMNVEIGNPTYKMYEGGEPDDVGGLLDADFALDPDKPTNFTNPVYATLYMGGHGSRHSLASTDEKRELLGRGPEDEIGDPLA

Target: PRSS2 (wild type), secreted into conditioned medium of transfected 293T cells (human) (UniProt P07478)
Experiment: co-IP

binding: binds
Substance: low-density lipoprotein receptor-related protein 1 (LRP1), endogenous in WI-38 lung fibroblasts (from UniProt Q07954 20-4544)
